This assay deals with T1, NLS-RFP-AKR2A (three tandem copies of the SV-40 large T antigen NLS fused to RFP and Arabidopsis AKR2A) (Arabidopsis) (UniProt Q9SAR5).
T1 sequence: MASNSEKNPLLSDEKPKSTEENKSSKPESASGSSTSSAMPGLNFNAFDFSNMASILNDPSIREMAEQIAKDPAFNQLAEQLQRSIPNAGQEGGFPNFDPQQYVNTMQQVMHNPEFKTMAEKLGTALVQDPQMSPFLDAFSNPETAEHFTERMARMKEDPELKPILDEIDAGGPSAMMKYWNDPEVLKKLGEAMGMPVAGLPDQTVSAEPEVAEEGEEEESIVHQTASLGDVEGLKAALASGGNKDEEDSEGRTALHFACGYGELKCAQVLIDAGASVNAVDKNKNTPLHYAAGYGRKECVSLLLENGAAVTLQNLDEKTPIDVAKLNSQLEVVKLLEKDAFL
The assay is described as follows: nuclear mislocalization assay; co-expression in tobacco BY-2 cells (biolistic bombardment, 500 ng of the plasmid for the GFP fusion protein); relocation of the partner to the nucleus by NLS-RFP-AKR2A, against NLS-RFP alone, seen by epi-(immuno)fluorescence microscopy.

Results are given in words; binding and its absence hold for the method and conditions named. Some entries that bind do so weakly or less than the wild type. Tags and fused reporters may be left off the sequences shown.

This passage reports binding results from paper PMC2854689.

B1: Toc33-GFP (Toc33 fused at its C terminus to GFP) (protein, UniProt O23680 1-297)
chain: MGSLVREWVGFQQFPAATQEKLIEFFGKLKQKDMNSMTVLVLGKGGVGKSSTVNSLIGEQVVRVSPFQAEGLRPVMVSRTMGGFTINIIDTPGLVEAGYVNHQALELIKGFLVNRTIDVLLYVDRLDVYRVDELDKQVVIAITQTFGKEIWCKTLLVLTHAQFSPPDELSYETFSSKRSDSLLKTIRAGSKMRKQEFEDSAIAVVYAENSGRCSKNDKDEKALPNGEAWIPNLVKAITDVATNQRKAIHVDKKMVDGSYSDDKGKKLIPLIIGAQYLIVKMIQGAIRNDIKTSGKPL
With B1, the binding result is “binds”.
